Source: patent publication US20220233583A1, “METHOD FOR TREATING OR PREVENTING SACCHARIDE-RELATED DISEASES OR DISORDERS” (SHANGHAI JIAOTONG UNIVERSITY, priority 2019, published 2022)
At least one compound was matched to its structure with a doubt left.

System: C57BL/6J mice
Test: Oral glucose tolerance test, Example 70
Format: in vivo
Conditions: at 15 min and 30 min; polymer 1.5 g/kg or acarbose 10 mg/kg gavage, glucose 2 g/kg

## C[C@H]1O[C@H](O[C@H]2[C@H](O)[C@@H](O)[C@@H](O[C@H]3[C@H](O)[C@@H](O)C(O)O[C@@H]3CO)O[C@@H]2CO)[C@H](O)[C@@H](O)[C@@H]1N[C@H]1C=C(CO)[C@@H](O)[C@H](O)[C@H]1O (stereo partly shown) [acarbose]
  blood glucose vs control group after oral glucose (FIG. 19): almost no difference
